No constants are given. Whether binding was seen depends on the method and setting. Some entries that bind do so weakly or less than the wild type.
What was measured:
Test in all cases: peptide or protein array; PEPscan: overlapping dodecapeptides (two amino acid shift) spanning the complete sequence of one partner on a cellulose membrane; saturated with 3% non-fat dry milk/3% BSA; incubated with the purified protein partner (4 mg/mL, 4 °C, overnight); antibody against that protein, HRP-conjugated secondary antibody, ECL; both purified
[1] = biological target: T1, NGAL fragment …
T1 sequence (peptide): NAILREDKDPQKMY

Protein sequences, listed by entry. Tags and fused reporters are not part of them. Residues count along the entry.
UniProt P16410, residues 36-223: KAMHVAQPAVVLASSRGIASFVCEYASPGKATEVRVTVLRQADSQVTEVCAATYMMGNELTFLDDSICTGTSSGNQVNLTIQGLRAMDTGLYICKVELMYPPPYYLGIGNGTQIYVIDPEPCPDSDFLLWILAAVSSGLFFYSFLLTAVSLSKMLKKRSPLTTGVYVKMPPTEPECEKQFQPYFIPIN
UniProt P80188, residues 21-198: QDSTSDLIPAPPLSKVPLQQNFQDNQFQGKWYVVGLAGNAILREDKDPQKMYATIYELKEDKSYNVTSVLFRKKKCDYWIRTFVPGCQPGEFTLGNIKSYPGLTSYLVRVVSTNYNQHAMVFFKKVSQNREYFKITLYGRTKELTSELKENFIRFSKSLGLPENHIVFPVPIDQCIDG
UniProt P37173, residues 23-567: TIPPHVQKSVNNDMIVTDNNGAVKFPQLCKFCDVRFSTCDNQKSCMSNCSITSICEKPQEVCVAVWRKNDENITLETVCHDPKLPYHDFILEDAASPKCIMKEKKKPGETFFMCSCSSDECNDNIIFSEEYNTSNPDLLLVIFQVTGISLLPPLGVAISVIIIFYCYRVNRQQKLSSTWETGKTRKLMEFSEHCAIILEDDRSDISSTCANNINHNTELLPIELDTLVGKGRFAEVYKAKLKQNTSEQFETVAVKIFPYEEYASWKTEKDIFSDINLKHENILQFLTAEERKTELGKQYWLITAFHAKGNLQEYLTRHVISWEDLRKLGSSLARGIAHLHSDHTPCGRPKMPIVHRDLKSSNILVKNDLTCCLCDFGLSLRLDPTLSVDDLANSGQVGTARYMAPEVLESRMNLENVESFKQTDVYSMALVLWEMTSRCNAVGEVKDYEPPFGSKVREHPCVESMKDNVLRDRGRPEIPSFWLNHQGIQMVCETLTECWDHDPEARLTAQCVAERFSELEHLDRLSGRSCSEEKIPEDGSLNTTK

[2] = biological target: T2, NGAL fragment …; remark: listed apart in the source
T2 sequence (peptide): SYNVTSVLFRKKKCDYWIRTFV

[3] = biological target: T3, NGAL fragment …; remark: listed apart in the source
T3 sequence (peptide): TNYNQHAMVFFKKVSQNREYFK

[4] = biological target: T4, NGAL fragment …; remark: listed apart in the source
T4 sequence (peptide): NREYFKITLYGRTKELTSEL

[5] = biological target: T5, CTLA4 fragment …
T5 sequence (peptide): TEVRVTVLRQADSQVT

[6] = biological target: T6, CTLA4 fragment …; remark: listed apart in the source
T6 sequence (peptide): EYASPGKATEVRVT

[7] = biological target: T7, TGFβ3 fragment …
T7 sequence (peptide): YIDFRQDLGWKWVHEPKG

In the case of CTLA-4 (from UniProt P16410 36-223), the binding [1] is reported as “binds”, the binding [2] is reported as “binds” and the binding [3] is reported as “binds”. The binding [4] was “binds”.

“Neutrophil Gelatinase-Associated Lipocalin (NGAL) (from UniProt P80188 21-198)” was tested, and the binding [5] was “binds” and the binding [6] was “binds”.

In the case of “Tumor Growth Factor Receptor (TGFbetaR2) (from UniProt P37173 23-567)”, the binding [7] is reported as “binds”.
